No constants are given. Whether binding was seen depends on the method and setting. In cells and extracts the contact can be indirect. Some binding calls cover weakened binding; strength is not graded here.
Target: SNAIL1 (human (endogenous in MHCC-97H)) (UniProt O95863)
Experiment: co-IP; total lysate of MHCC-97H cells, precleared with protein A/G-agarose, primary antibodies against SNAIL1, ERK2 or IgG, overnight at 4 °C, immunoblotting (Fig. 6c)

Amino acid sequences for entries named in this document (tags omitted).
UniProt O95863: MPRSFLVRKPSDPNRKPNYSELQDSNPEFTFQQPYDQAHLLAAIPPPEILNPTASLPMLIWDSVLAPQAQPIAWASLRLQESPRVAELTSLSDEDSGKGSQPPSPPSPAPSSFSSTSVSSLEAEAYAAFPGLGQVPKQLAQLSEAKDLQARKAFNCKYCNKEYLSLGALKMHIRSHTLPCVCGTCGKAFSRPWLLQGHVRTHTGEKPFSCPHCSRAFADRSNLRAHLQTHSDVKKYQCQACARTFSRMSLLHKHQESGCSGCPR
UniProt P28482: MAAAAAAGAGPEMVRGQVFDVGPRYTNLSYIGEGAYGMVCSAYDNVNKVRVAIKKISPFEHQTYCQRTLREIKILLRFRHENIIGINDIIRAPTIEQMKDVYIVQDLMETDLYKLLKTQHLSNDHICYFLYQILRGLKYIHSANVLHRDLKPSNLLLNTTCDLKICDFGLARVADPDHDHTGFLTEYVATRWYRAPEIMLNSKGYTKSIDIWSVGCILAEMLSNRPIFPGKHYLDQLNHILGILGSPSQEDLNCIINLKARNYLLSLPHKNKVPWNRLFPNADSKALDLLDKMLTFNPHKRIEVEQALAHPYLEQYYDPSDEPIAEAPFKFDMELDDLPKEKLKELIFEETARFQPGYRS

Substance: ERK2 (from UniProt P28482 1-360) (enzyme)
- binding: binds

— publication PMC4567819
